Assay results reported in the supplement of paper PMC12578635.
± gives the standard deviation of the averaged measurements. The list shows a part of the results. Single values are uncertain, as repeats are few or missing.

tested on: RAW 264.7 macrophages infected with S. aureus JE2-lux; experiment: host macrophage viability (CellTiter-Fluor) relative to DMSO vehicle; higher = more viable host cells; conditions: 10 µM; treatment time 4 h; gentamicin 50 µg/ml

Row | Compound | host macrophage viability
1 | COc1cccc2c(=O)cc(C)n(CC(=O)NCc3ccccc3)c12 | 97.8%
2 | N#Cc1ccccc1Cn1c(=O)n(CC(=O)NCc2ccccc2Cl)c(=O)c2sccc21 | 131%
3 | N#C/C(=C/c1ccc(O)c([N+](=O)[O-])c1)c1nc(-c2ccc([N+](=O)[O-])cc2)cs1 | 113 ± 22%
4 | COC(=O)c1ccc(CSc2nc(N)cc(=O)[nH]2)cc1 | 104%
5 | CCOC(=O)Cc1csc(NC(=O)CSc2nnc3ccccn23)n1 | 118 ± 17%
6 | Cc1[nH]c2ccccc2c1SCC(=O)Nc1ccc(F)cc1 | 124%
7 | Cc1nc(N2CCC(C(=O)NCCc3ccc(S(N)(=O)=O)cc3)CC2)c2c(C)c(C)oc2n1 | 107%
8 | CCOc1ccc(-c2nc3c(c(=O)[nH]2)Cc2cc(Cl)ccc2O3)cc1 | 126%
9 | COc1ccc2cc(C)c3nn(CCNC(=O)c4noc5c4CCCC5)c(=O)n3c2c1 | 100%
10 | COC(=O)CSc1nc(-c2ccc(OC)cc2)nc2c1Cc1cc(C)ccc1O2 | 96.9%
11 | C=CCN(C(=O)C(C)Sc1nc2ncccc2o1)c1ccccc1 (configuration not stated) | 119%
12 | CCN(c1ccccc1)S(=O)(=O)c1ccc(C(=O)Nc2ccc3c(c2)C(=O)N(C)C3=O)cc1 | 126%
13 | COc1ccc(OC)c(NS(=O)(=O)c2c(C)sc(C)c2-c2cc(C(F)(F)F)on2)c1 | 101%
14 | Cc1nc(OCC(=O)NC2CCCc3ccccc32)c2c(-c3cccc(F)c3)noc2n1 (configuration not stated) | 111%
15 | COc1ccc(C(=O)CSc2cc(C)[nH]c(=O)n2)cc1 | 123%
16 | CCCCNS(=O)(=O)c1ccc2[nH]c(=O)cc(C)c2c1 | 127%
17 | Cc1ccn2c(=O)nc(SCC(=O)c3ccccc3)nc2c1 | 111%
18 | Cc1ccc2cc(CCNC(=O)c3c(F)cccc3Cl)c(=O)[nH]c2c1C | 126%
19 | CCOC(=O)N1CCC2(CC1)Oc1c(OC)cccc1C1CC(c3cc(C)ccc3O)=NN12 (configuration not stated) | 119%
20 | COCCNc1cc(C)nc2cc(-c3cc(OC)cc(OC)c3)nn12 | 92.3%
21 | Cc1cc(NC(=O)c2ccccc2C(F)(F)F)n(-c2ncnc3c2cnn3-c2cccc(Cl)c2)n1 | 120%
22 | Cc1ccc2nc(NCc3ccccc3)c(/C=N/Cc3cccnc3)c(=O)n2c1 | 106%
23 | O=C(COc1ncnc2ccccc12)NC1(CN2CCCC2)CCCCC1 | 103%
24 | O=C(CSc1nc(=O)[nH]c2c1CCCC2)NCc1ccc2c(c1)OCO2 | 125%
25 | CC(SC1=Nc2ccccc2C2=NC(c3ccccc3)C(=O)N12)C(=O)Nc1ccc2c(c1)OCCO2 (configuration not stated) | 98.7%
26 | COc1ccc(CCNC(=O)Cn2nc(-c3ccc(C)o3)cc(N)c2=O)cc1OC | 106%

Row | Compound | host macrophage viability
27 | CCc1ccc(-c2noc3c(=O)n(CCC(=O)NCCCN4CCCC4=O)cnc23)cc1 | 130%
28 | CCN(CC)c1cc(CNC(=O)Nc2ccc3c(c2)OCO3)ccn1 | 118%
29 | O=C(Cn1c2c(c(=O)n3nc(-c4ccccc4)nc13)CCC2)NCC1CCCO1 (configuration not stated) | 109%
30 | O=C(COc1ncnc2onc(-c3ccccc3)c12)Nc1ccc(Br)cc1F | 131%
31 | COc1cc(NC(=O)CSc2nnc(-c3ccc(NS(=O)(=O)c4ccccc4)cc3)o2)cc(OC)c1 | 112%
32 | CCOC(=O)c1sc(NC(=O)c2ccc(Cl)s2)c(SC#N)c1C | 149%
33 | O=C(NC1CCN(Cc2ccccc2)CC1)c1cnc(N2CCOCC2)c2ccccc12 | 113%
34 | CCOc1ccc2ncc(C(=O)NCc3ccc(F)cc3)c(O)c2c1 | 109%
35 | CC(=O)Nc1ccc(NC(=O)c2cnc3c(c(C)nn3-c3ccccc3)c2Cl)cc1 | 107%
36 | C=CCOc1cc(C2CC(=O)Nc3c2c(C)nn3-c2nncc(-c3ccc(C)cc3)n2)ccc1OC (configuration not stated) | 111%
37 | COc1cc(C)c(-c2nc(NC(=O)C3(C)CCCO3)sc2C)cc1C (configuration not stated) | 93.1%
38 | N#Cc1c(NC(=O)CC2SC(=N)NC2=O)sc2c1CCCC2 (configuration not stated) | 127%
39 | Cc1csc2nc(O)c(C(=O)NCCCN3CCOCC3)c(=O)n12 | 124%
40 | Cc1ccccc1CNc1nc(NCCO)nc2c1cnn2C | 114%
41 | CCOC(=O)c1c(NC(=O)CSc2nnc3ncccn23)sc(C)c1C | 112%
42 | Cc1nc2ccc(NC(=O)c3cccc(NS(=O)(=O)c4ccc(F)cc4)c3)cc2s1 | 113%
43 | O=C(Cn1c(=O)n(CCc2ccccc2)c(=O)c2c3c(sc21)CCCC3)Nc1ccc(F)c(F)c1 | 106%
44 | Cc1cc2cc3c(cc2nc1NCCNC(=O)c1ccco1)OCCO3 | 110%
45 | CCOC(=O)c1cnc2cc(OC)c(OC)cc2c1O | 101%
46 | COc1ccc(OC)c(Nc2ncc3c(n2)CCNC3)c1 | 108%
47 | Cc1cc(=O)[nH]c(N2CCN(C(=O)N3CCCCC3)CC2)n1 | 120%
48 | Cc1ccc2c(c1)C(=O)C(=O)N2CCn1c2ccccc2c2nc3ccccc3nc21 | 109%
49 | COc1ccccc1-c1nc(SCC(=O)NCC2CCCO2)c2c(=O)n(C)c(=O)n(C)c2n1 (configuration not stated) | 126%
50 | COc1ccc(NC(=O)c2cccc3nc4ccccc4nc23)c(OC)c1 | 135%
51 | CN1C(=O)NC(c2cccc(F)c2)C(C(=O)c2cccs2)C1(O)C(F)(F)F (configuration not stated) | 112%
52 | Cc1ccc(Cl)c2sc(N3CCN(C(=O)c4cccc([N+](=O)[O-])c4)CC3)nc12 | 107%

Single entries from the results shown.
In host macrophage viability, N#Cc1c(NC(=O)CC2SC(=N)NC2=O)sc2c1CCCC2 (configuration not stated) has 127%
In host macrophage viability, Cc1ccc2c(c1)C(=O)C(=O)N2CCn1c2ccccc2c2nc3ccccc3nc21 has 109%
In host macrophage viability, Cc1ccccc1CNc1nc(NCCO)nc2c1cnn2C has 114%
